Measured values: article PMC5715071

Protein sequences, listed by entry. Tags and fused reporters are not part of them. Lines headed by an entry give the natural chain unless they say otherwise; changes in a name come on top.
UniProt O88900: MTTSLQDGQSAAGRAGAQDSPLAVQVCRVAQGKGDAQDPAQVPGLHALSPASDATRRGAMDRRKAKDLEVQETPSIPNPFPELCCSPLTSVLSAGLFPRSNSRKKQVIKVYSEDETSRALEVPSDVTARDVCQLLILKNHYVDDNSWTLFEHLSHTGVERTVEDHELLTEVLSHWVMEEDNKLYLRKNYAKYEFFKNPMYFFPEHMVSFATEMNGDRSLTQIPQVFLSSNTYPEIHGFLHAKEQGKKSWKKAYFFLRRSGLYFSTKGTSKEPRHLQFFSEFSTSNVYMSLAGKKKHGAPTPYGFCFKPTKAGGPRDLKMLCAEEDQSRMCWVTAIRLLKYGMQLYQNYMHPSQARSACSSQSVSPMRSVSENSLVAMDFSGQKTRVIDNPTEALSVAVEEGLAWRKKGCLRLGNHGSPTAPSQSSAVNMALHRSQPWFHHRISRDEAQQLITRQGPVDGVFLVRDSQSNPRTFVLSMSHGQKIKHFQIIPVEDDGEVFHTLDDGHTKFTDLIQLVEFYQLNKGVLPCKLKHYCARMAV
UniProt P06213: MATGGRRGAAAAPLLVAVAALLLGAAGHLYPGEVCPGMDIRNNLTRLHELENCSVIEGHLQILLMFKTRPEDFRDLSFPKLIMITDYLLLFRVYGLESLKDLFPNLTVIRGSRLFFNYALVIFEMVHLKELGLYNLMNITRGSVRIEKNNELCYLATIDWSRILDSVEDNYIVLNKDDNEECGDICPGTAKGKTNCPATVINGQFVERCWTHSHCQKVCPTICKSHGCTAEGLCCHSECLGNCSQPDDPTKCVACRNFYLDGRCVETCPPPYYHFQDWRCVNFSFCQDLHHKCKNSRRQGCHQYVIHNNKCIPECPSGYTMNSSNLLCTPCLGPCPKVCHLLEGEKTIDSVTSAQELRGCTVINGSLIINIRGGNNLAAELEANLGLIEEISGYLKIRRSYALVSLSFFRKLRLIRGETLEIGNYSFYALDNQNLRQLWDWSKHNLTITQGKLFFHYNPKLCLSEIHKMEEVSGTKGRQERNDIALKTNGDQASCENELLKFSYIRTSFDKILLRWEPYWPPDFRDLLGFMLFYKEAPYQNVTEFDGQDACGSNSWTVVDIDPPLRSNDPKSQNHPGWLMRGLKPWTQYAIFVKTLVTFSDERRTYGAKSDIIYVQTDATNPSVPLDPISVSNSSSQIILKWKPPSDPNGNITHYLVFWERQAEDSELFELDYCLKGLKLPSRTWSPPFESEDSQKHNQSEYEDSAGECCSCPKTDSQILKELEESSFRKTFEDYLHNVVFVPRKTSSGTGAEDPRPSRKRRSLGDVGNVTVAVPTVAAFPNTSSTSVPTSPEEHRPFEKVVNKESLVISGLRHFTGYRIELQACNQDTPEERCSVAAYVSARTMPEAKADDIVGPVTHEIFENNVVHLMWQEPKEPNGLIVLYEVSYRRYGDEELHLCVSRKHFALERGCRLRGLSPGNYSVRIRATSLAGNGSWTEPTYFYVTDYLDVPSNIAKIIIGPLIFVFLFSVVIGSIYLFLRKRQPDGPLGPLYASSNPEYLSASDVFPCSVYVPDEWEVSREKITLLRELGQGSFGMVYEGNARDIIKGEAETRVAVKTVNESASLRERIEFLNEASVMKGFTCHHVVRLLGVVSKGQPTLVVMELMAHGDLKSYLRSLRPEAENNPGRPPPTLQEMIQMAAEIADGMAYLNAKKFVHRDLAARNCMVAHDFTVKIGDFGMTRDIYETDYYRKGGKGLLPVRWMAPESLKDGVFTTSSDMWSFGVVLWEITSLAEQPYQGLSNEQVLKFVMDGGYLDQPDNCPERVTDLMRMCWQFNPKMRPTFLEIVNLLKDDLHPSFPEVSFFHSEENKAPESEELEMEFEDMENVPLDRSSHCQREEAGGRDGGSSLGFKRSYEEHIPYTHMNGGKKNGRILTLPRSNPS

Target: Growth factor receptor-bound protein 14 fused to YFP (Grb14-YFP) (UniProt O88900)
Experiment: co-IP; HEK-293T cells co-transfected with IRTK48-Rluc and Grb14-YFP or YFP-Grb10, with or without 50 µM C8 for 4 h; lysate with anti-GFP antibody and protein G-agarose 2 h 30 min at 4 °C; blot with anti-Luc

binding: binds
Substance: Tyrosine kinase domain of the insulin receptor fused to Renilla luciferase (IRTK48-Rluc) (from UniProt P06213) (domain or fragment)

No constants are given. Whether binding was seen depends on the method and setting. In cells and extracts the contact can be indirect. Binding can be weak; no strength is given.
